Data from the supplement of paper PMC10849652.
The list shows a part of the results.

The chains behind the UniProt entries cited, without tags or fusion partners. Where a name states a change or a piece, a line headed by the entry shows the natural chain unless it says otherwise.
UniProt Q96A49: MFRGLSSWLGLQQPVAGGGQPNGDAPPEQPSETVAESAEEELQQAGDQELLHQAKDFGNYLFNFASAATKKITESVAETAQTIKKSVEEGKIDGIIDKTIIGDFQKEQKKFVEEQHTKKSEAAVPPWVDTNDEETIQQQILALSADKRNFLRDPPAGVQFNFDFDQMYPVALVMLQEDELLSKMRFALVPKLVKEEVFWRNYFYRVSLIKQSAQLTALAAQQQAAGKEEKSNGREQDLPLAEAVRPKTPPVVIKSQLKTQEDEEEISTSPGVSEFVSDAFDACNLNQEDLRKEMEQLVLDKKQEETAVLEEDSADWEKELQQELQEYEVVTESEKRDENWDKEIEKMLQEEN
UniProt Q96SI9: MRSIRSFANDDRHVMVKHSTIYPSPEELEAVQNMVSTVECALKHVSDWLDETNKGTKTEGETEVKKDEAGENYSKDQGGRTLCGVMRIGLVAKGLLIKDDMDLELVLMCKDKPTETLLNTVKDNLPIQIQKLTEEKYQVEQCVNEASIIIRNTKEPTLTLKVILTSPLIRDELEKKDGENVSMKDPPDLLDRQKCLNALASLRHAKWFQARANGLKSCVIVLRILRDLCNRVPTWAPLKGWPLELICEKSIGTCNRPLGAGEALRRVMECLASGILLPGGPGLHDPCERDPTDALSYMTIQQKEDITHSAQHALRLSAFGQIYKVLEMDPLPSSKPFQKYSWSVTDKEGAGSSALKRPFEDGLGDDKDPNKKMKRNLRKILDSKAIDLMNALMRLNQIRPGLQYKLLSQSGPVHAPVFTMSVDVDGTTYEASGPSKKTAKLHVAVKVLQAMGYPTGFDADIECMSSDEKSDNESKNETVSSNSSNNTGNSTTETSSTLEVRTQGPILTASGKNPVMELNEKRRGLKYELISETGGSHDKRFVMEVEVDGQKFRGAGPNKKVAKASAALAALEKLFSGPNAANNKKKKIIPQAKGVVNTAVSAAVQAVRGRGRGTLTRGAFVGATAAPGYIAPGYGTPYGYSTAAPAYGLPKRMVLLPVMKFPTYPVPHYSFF
UniProt P16949: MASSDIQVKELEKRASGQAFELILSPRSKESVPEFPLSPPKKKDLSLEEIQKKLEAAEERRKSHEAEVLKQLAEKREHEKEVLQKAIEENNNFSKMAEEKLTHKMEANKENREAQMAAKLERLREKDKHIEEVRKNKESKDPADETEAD
UniProt O43760: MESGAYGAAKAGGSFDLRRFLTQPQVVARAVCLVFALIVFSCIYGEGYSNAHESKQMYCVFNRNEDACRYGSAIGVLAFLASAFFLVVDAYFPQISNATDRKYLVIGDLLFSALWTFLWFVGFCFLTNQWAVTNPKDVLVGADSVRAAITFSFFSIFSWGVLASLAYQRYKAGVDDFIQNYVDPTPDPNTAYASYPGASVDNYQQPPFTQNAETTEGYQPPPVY
UniProt Q15208: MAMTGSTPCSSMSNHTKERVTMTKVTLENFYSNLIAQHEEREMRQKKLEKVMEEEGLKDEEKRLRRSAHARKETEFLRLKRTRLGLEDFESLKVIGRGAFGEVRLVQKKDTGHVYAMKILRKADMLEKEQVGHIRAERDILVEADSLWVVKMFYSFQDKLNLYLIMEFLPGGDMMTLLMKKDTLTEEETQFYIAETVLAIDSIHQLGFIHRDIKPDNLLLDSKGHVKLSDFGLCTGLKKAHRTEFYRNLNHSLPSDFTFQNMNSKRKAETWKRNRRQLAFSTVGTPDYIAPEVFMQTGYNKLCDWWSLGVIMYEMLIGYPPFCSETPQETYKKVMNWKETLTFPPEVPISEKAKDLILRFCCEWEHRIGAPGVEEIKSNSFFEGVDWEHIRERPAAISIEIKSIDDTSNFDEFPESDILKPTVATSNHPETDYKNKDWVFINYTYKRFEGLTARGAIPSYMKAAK
UniProt P37837: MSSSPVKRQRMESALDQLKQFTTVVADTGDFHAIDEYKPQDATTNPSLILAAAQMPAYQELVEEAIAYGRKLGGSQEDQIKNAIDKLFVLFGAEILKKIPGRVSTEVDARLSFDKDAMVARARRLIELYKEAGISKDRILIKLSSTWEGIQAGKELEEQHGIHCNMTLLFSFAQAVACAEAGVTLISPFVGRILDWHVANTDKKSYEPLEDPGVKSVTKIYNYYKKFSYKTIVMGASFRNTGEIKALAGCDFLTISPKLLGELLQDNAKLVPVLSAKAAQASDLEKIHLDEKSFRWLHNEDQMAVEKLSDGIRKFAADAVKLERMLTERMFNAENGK
UniProt Q15545, whole entry, looked up: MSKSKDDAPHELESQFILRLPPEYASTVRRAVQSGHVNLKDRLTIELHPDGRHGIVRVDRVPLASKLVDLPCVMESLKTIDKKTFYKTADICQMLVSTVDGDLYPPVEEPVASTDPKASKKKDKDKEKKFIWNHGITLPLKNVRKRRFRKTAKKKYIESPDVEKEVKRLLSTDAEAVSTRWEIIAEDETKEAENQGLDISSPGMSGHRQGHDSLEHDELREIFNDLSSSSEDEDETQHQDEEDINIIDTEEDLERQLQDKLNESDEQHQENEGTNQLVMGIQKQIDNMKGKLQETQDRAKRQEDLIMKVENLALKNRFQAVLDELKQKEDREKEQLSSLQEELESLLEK
UniProt O75683: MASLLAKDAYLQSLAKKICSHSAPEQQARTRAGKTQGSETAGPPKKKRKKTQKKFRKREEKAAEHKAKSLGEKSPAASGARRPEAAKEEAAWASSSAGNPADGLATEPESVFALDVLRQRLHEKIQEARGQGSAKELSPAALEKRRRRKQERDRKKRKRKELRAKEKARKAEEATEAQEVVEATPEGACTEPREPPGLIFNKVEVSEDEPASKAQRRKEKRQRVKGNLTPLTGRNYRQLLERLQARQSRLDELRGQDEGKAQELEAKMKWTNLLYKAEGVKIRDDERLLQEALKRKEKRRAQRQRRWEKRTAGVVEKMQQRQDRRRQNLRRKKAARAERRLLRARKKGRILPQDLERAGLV
UniProt Q17R31: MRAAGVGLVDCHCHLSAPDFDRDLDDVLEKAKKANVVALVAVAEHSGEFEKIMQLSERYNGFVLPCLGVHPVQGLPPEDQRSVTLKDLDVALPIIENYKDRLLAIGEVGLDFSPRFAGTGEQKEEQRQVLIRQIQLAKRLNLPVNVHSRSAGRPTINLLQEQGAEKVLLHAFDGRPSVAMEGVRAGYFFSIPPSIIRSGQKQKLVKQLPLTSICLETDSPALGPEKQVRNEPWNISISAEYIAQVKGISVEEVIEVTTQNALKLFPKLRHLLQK
UniProt O15260: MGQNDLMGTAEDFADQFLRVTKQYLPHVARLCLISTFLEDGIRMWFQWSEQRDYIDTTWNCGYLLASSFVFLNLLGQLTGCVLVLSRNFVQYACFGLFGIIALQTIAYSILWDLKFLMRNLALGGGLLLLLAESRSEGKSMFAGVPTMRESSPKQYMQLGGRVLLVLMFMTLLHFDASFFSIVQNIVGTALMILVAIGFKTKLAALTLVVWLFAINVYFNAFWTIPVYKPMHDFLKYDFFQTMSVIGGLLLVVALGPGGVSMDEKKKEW
UniProt O95359: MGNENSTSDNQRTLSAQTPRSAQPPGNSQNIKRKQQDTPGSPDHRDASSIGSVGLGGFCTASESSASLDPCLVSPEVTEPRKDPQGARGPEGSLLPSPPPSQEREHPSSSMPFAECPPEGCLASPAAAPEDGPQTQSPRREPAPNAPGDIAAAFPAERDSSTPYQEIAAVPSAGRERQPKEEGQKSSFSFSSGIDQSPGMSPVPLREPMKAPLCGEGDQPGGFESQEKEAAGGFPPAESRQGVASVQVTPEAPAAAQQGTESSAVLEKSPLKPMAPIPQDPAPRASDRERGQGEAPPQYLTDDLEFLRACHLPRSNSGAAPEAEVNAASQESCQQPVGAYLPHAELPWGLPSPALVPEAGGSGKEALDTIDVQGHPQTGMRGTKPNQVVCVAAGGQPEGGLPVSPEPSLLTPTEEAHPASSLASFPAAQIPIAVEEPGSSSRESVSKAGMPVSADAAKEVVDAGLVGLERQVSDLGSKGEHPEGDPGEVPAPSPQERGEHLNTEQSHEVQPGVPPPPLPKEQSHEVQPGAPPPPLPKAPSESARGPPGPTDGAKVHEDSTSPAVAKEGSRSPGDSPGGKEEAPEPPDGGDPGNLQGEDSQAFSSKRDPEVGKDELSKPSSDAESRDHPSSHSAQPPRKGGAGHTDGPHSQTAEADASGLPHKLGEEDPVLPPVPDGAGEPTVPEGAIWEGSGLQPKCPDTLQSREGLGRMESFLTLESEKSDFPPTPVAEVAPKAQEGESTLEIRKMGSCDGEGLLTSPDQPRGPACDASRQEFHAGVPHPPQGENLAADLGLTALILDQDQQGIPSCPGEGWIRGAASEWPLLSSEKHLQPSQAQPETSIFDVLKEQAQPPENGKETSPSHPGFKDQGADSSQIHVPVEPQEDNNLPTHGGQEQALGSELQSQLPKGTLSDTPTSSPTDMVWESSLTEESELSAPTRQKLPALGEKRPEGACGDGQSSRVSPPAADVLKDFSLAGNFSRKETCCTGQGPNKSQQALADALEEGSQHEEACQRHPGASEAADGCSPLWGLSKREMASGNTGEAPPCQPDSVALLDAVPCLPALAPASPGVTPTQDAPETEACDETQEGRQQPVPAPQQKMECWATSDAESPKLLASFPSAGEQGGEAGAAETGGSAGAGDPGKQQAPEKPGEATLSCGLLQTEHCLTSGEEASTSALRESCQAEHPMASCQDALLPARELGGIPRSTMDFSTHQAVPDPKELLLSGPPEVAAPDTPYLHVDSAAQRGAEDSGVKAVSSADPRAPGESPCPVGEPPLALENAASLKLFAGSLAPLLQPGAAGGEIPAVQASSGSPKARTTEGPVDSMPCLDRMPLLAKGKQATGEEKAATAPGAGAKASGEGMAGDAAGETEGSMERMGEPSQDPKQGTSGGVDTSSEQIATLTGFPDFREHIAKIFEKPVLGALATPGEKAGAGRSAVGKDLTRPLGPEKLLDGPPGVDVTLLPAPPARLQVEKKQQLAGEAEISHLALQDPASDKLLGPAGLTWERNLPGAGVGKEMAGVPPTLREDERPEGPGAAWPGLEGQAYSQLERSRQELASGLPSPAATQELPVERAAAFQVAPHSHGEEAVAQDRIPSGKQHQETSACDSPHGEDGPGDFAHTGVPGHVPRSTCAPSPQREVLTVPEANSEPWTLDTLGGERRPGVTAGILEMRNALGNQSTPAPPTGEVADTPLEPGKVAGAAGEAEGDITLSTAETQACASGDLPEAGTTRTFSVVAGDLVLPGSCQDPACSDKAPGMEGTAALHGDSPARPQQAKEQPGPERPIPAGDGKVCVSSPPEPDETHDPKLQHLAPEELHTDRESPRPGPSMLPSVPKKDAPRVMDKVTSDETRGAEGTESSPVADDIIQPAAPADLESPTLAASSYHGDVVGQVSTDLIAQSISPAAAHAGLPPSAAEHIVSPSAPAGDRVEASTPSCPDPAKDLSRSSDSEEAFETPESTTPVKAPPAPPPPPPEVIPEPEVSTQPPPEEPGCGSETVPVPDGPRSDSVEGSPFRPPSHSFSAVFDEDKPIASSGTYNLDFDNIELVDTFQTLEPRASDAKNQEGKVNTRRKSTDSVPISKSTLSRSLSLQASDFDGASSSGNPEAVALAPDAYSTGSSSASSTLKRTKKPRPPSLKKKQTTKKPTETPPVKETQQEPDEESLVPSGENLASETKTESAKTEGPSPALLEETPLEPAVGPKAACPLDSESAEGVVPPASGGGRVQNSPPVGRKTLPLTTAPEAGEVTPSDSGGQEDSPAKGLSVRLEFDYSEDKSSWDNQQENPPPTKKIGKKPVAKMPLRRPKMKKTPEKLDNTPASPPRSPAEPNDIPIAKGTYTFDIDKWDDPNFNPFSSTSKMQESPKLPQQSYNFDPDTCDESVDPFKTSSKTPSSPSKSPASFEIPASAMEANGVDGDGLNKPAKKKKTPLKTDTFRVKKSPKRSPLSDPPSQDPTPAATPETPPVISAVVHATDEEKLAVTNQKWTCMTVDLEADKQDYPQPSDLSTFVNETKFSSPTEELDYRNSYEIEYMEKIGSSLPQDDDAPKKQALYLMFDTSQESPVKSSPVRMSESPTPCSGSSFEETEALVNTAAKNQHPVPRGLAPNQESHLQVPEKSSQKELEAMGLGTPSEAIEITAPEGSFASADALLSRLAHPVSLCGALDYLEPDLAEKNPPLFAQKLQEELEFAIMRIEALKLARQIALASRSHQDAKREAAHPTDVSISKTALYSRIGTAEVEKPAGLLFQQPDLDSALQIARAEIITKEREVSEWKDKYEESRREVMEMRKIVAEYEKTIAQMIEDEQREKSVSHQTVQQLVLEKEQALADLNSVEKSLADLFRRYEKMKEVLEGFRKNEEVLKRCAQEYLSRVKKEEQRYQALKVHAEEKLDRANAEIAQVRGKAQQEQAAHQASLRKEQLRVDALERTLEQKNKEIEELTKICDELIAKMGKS
UniProt Q8N300: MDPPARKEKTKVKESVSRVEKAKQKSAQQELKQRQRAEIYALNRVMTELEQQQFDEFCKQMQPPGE

Assays:
Assay in all cases: log2 fold change, soluble protein after heating vs DMSO (PISA); higher = thermal stabilisation; K562 cells, 10 uM, 30 min; active = over 0.2 and 3.5 SD of the protein, either way, in both replicates (recomputed)
[1] = compound: CC1=C(C=C(C=C1)NC(=O)C2=CC(=CC=C2)C(C)(C)C#N)NC3=CC4=C(C=C3)N=CN(C4=O)C
Method in brief: (§1)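 Aliquots of K562 cells (2×10^6 cells/mL) treated with 10 μM compound for 30 min were heated for 3 min over 48°C-58°C. After pooling and extraction in PBS with 0.5% NP-40 at 4°C, soluble protein from a 21,000xg, 90 min spin was quantified by TMTpro 16plex LC-MS/MS with channel sums equalised. Thermal stability is expressed against control samples, from duplicates, as a log2 fold change.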

[2] = compound: CC1=C(C=C(C=C1)NC(=O)C2=CC(=CC=C2)N(C)C)NC(=O)C3=CC=C(C=C3)O
Method in brief: as §1

[3] = compound: CC1=CC=C(C=C1)SC2=C3C=C(SC3=CN=C2)C(=O)N
Method in brief: as §1

[4] = compound: CC1=NC(=CC=C1)C2=C(N=C(N2)C(C)(C)C)C3=CC4=NC=CN=C4C=C3
Method in brief: as §1

Nexturastat A = compound: CCCCN(Cc1ccc(C(=O)NO)cc1)C(=O)Nc1ccccc1 [Nexturastat A]
Method in brief: as §1

vemurafenib = compound: CCCS(=O)(=O)Nc1ccc(F)c(C(=O)c2c[nH]c3ncc(-c4ccc(Cl)cc4)cc23)c1F [vemurafenib]
Method in brief: as §1

[5] = compound: CCCS(=O)(=O)Nc1ccc(F)c(C(=O)c2c[nH]c3ncc(Cl)cc23)c1F
Method in brief: as §1

[6] = compound: CCCc1cc(C)[nH]c(=O)c1CNC(=O)c1cc(-c2ccnc(N3CCN(C)CC3)c2)cc2c1cnn2C(C)C
Method in brief: as §1

givinostat = compound: CCN(CC)Cc1ccc2cc(COC(=O)Nc3ccc(C(=O)NO)cc3)ccc2c1 [givinostat]
Method in brief: as §1

barasertib = compound: CCN(CCCOc1ccc2c(Nc3cc(CC(=O)Nc4cccc(F)c4)[nH]n3)ncnc2c1)CCOP(=O)(O)O [barasertib]
Method in brief: as §1

Target	log2 fold change [1]	log2 fold change [2]	log2 fold change [3]	log2 fold change [4]	log2 fold change (Nexturastat A)	log2 fold change (vemurafenib)	log2 fold change [5]	log2 fold change [6]	log2 fold change (givinostat)	log2 fold change (barasertib)
SYAP1 (UniProt Q96A49)	inactive: 0.005	inactive: 0.019	inactive: 0.021	inactive: 0.008	inactive: -0.064	inactive: 0.014	inactive: 0.012	inactive: -0.051	inactive: -0.028	inactive: 0.02
STK4 (UniProt Q13043)	inactive: -0.065	inactive: 0.018	inactive: -0.022	inactive: 0.007	inactive: 0.004	inactive: -0.024	inactive: -0.014	inactive: 0.005	inactive: -0.006	inactive: 0.032
STT3B (UniProt Q8TCJ2)	inactive: 0.009	inactive: 0.03	inactive: -0.058	inactive: -0.053	inactive: 0.042	inactive: -0.064	inactive: -0.013	inactive: 0.042	inactive: 0.01	inactive: -0.005
STRBP (UniProt Q96SI9)	inactive: 0.038	inactive: -0.005	inactive: -0.103	inactive: -0.04	inactive: 0.095	inactive: -0.155	inactive: -0.244	inactive: 0.096	inactive: -0.031	inactive: -0.106
STMN1 (UniProt P16949)	inactive: 0.006	inactive: 0.014	inactive: 0.005	inactive: 0.032	inactive: -0.063	inactive: -0.016	inactive: -0.102	inactive: -0.054	inactive: -0.03	inactive: -0.015
STK3 isoform 2 (UniProt Q13188)	inactive: -0.046	inactive: 0.004	inactive: -0.027	inactive: 0.079	inactive: -0.004	inactive: -0.048	inactive: -0.02	inactive: 0.025	inactive: -0.003	inactive: -0.01
SYNRG (UniProt Q9UMZ2)	inactive: -0.012	inactive: -0.016	inactive: 0	inactive: -0.014	inactive: 0.003	inactive: 0.036	inactive: 0.052	inactive: -0.126	inactive: -0.019	inactive: 0.015
TARS2 (UniProt Q9BW92)	inactive: -0.027	inactive: 0.022	inactive: 0.021	inactive: 0.078	inactive: -0.201	inactive: 0.008	inactive: 0.027	inactive: -0.013	active: -0.245	inactive: 0.028
TACC1 isoform 2 (UniProt O75410)	inactive: -0.028	inactive: 0	inactive: 0.013	inactive: -0.003	inactive: -0.055	inactive: 0.009	inactive: -0.026	inactive: -0.08	inactive: -0.023	inactive: 0.029
STRN4 isoform 3 (UniProt Q9NRL3)	inactive: -0.059	inactive: 0.01	inactive: -0.013	inactive: 0.007	inactive: -0.024	inactive: 0.059	inactive: -0.021	inactive: 0.012	inactive: -0.016	inactive: 0.099
SYNGR2 (UniProt O43760)	inactive: -0.025	inactive: -0.018	inactive: -0.033	inactive: -0.028	inactive: -0.048	inactive: -0.138	inactive: -0.028	inactive: -0.067	inactive: -0.06	inactive: 0.002
STK38 (UniProt Q15208)	inactive: 0.099	inactive: -0.054	inactive: 0.013	inactive: 0.004	inactive: -0.062	inactive: 0.091	inactive: 0.12	inactive: 0.049	inactive: 0.048	inactive: 0.022
TALDO1 (UniProt P37837)	inactive: 0.006	inactive: -0.006	inactive: 0.011	inactive: 0.041	inactive: -0.096	inactive: 0.021	inactive: 0.038	inactive: -0.001	inactive: -0.058	inactive: 0.024
TAF7 (UniProt Q15545)	inactive: -0.052	inactive: 0.021	inactive: 0.008	inactive: -0.008	inactive: 0.049	inactive: 0.041	inactive: 0.004	inactive: 0	inactive: 0.037	inactive: 0.014
STX17 (UniProt P56962)	inactive: -0.036	inactive: -0.064	inactive: -0.023	inactive: 0.039	inactive: 0.126	inactive: 0.12	inactive: 0.12	inactive: -0.07	inactive: 0.152	inactive: 0.011
SURF6 (UniProt O75683)	inactive: -0.102	inactive: -0.067	inactive: -0.096	inactive: -0.215	inactive: 0.316	inactive: -0.014	inactive: 0.036	inactive: 0.117	inactive: 0.137	inactive: -0.178
TANGO2 isoform 4 (UniProt Q6ICL3)	inactive: -0.018	inactive: -0.075	inactive: -0.025	inactive: -0.023	inactive: -0.098	inactive: 0.003	inactive: -0.045	inactive: 0.032	inactive: -0.005	inactive: -0.025
SUPT16H (UniProt Q9Y5B9)	inactive: 0.082	inactive: -0.081	inactive: 0.01	inactive: 0.102	inactive: -0.019	inactive: 0.186	inactive: 0.093	inactive: 0.061	inactive: 0.223	inactive: 0.187
TATDN3 isoform 3 (UniProt Q17R31)	inactive: 0.009	inactive: 0.027	inactive: -0.011	inactive: 0.013	inactive: -0.069	inactive: -0.063	inactive: -0.142	inactive: 0.005	inactive: -0.06	inactive: -0.004
SUPT4H1 (UniProt P63272)	inactive: 0.026	inactive: -0.066	inactive: 0.042	inactive: 0.044	inactive: -0.031	inactive: 0.036	inactive: 0.013	inactive: 0.223	inactive: -0.008	inactive: 0.035
SURF4 (UniProt O15260)	inactive: 0.019	inactive: -0.013	inactive: 0.014	inactive: 0	inactive: -0.064	inactive: 0	inactive: -0.006	inactive: -0.023	inactive: 0.008	inactive: -0.043
TACC2 (UniProt O95359)	inactive: -0.015	inactive: -0.058	inactive: 0.16			inactive: 0.032	inactive: -0.054	inactive: -0.085	active: -0.284	inactive: 0.012
TAF2 (UniProt Q6P1X5)	inactive: 0.006	inactive: 0.028	inactive: 0.042	inactive: -0.199	inactive: -0.024	inactive: -0.078	inactive: -0.024	inactive: 0.097		inactive: -0.074
SYNJ2 (UniProt O15056)	inactive: -0.195	inactive: -0.149		inactive: -0.028	inactive: 0.202	inactive: -0.056		inactive: 0.146	inactive: 0.13	inactive: 0.095
TAMM41 isoform 3 (UniProt Q96BW9)	inactive: -0.021	inactive: -0.013	inactive: 0.049	inactive: 0.056	inactive: -0.084	inactive: -0.006	inactive: 0.04	inactive: -0.062	inactive: 0.036	inactive: 0.046
TAB2 (UniProt Q9NYJ8)	inactive: 0.041	inactive: -0.101			inactive: 0.025	inactive: -0.023				
SUPT5H (UniProt O00267)	inactive: 0.004	inactive: -0.054	inactive: 0.006	inactive: 0.013	inactive: -0.067	inactive: 0.008	inactive: 0.068	inactive: -0.028	inactive: 0.035	inactive: 0.04
SUPT6H (UniProt Q7KZ85)	inactive: -0.027	inactive: -0.186	inactive: 0.071	inactive: -0.026	inactive: -0.061	inactive: 0.07	inactive: 0.044	inactive: 0.15	inactive: 0.027	inactive: -0.1
SVBP (UniProt Q8N300)	inactive: -0.129	inactive: -0.006	inactive: 0.026		inactive: -0.054	inactive: -0.014	inactive: -0.065	inactive: -0.026		inactive: -0.173

A few values from above.
Entry for SYNGR2 (UniProt O43760) under log2 fold change [6]: inactive: -0.067
Entry for TACC1 isoform 2 (UniProt O75410) under log2 fold change (givinostat): inactive: -0.023
